# Patent EP1464334A1 (priority 2003, dated 2004)
# Sequences of proteins named here, by UniProt entry; tags and fusion partners are left off. Residues count along the entry.
# UniProt P10279, 25-241 limits assumed: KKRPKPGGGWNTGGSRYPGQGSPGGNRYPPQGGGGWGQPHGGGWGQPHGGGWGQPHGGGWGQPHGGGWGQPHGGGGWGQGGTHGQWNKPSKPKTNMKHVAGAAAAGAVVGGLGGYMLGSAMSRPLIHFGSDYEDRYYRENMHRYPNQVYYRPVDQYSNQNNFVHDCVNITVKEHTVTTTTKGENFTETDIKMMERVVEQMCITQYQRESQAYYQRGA
# Some results were stated once for a whole list of compounds, not compound by compound.
# Target: PrP^Sc (Bos taurus, UniProt P10279)
# Assay type: biochemical, Rinder
# Conditions: method of Example 1; compared with Chinacrin (VI)
row,SMILES,Anti-Prion-Aktivität
1,CC(=O)c1ccc2c(c1)N(CCCN(C)C)c1ccccc1S2 [Acepromazin],"Anti-Prion-Aktivität, wenn auch geringer als die von Chinacrin (VI)"
2,CN(C)CCCN1c2ccccc2Sc2ccc(Cl)cc21 [Chlorpromazin],"Anti-Prion-Aktivität, wenn auch geringer als die von Chinacrin (VI)"
3,CN(C)CCCN1c2ccccc2Sc2ccccc21 [Promazin],"Anti-Prion-Aktivität, wenn auch geringer als die von Chinacrin (VI)"
4,CC(CN1c2ccccc2Sc2ccccc21)N(C)C (stereo not shown) [Promethazin],"Anti-Prion-Aktivität, wenn auch geringer als die von Chinacrin (VI)"
